Measurements reported in PubChem BioAssay AID1224830 (NIAID, 2016)
Shown is a random part of about 18,000 reagents. Of all reagents, about 2,900 (16%) were called active. 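Calls are made per well; low scores hint the gene aids the LPS response, high scores that it dampens it.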 Repeated entries: four replicate wells of each siRNA pool. Reagent sequences are not shown.

Screen: 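Host factors that control LPS-induced TNF expression in human macrophages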 (primary screen)
System: human THP-1 monocytic leukaemia cells, TNF dual-luciferase reporter clone, PMA-differentiated to macrophage-like cells
Knock-down reagent: siRNA pool against human genes, 50 nM
Timing: LPS for 4 h, given about 3 days after siRNA transfection
Challenge: bacterial LPS (TLR4 ligand), 10 ng/ml
Read-out: 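TNF firefly reporter luminescence divided by renilla, normalised to the plate median, then turned into a robust z-score for each replicate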
Scale: TNF reporter robust z-score: higher = stronger TNF reporter response to LPS
Rule for the call: 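a well is active when its z-score exceeds 2.8 or falls below -1.5; control wells carry no call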

| gene | TNF reporter robust z-score | call |
| --- | --- | --- |
| PAXX | -0.84 | inactive |
| PAXX | -0.37 | inactive |
| PAXX | -0.39 | inactive |
| PAXX | -0.69 | inactive |
| SLC25A17 | 0.71 | inactive |
| SLC25A17 | 1.14 | inactive |
| SLC25A17 | 0.43 | inactive |
| SLC25A17 | 0.08 | inactive |
| ASH1L | -1.07 | inactive |
| ASH1L | -1.5 | inactive |
| ASH1L | -1.51 | active |
| ASH1L | -1.01 | inactive |
| ABCC12 | -0.13 | inactive |
| ABCC12 | -0.73 | inactive |
| ABCC12 | -0.45 | inactive |
| ABCC12 | 0.74 | inactive |
| MYH2 | -0.7 | inactive |
| MYH2 | -0.35 | inactive |
| MYH2 | -0.65 | inactive |
| MYH2 | -0.25 | inactive |
| SHFL | -1.8 | active |
| SHFL | -1.5 | inactive |
| SHFL | -1.6 | active |
| SHFL | -1.35 | inactive |
| VPS39 | 1.51 | inactive |
| VPS39 | 1.95 | inactive |
| VPS39 | -0.7 | inactive |
| VPS39 | -0.68 | inactive |
| TFB1M | -1.06 | inactive |
| TFB1M | -0.28 | inactive |
| TFB1M | -0.53 | inactive |
| TFB1M | -0.29 | inactive |
| SAG | -0.59 | inactive |
| SAG | -0.54 | inactive |
| SAG | -0.72 | inactive |
| SAG | -0.68 | inactive |
| CNIH1 | -0.72 | inactive |
| CNIH1 | -0.82 | inactive |
| CNIH1 | -0.3 | inactive |
| CNIH1 | -0.43 | inactive |
| PLOD3 | -1.91 | active |
| PLOD3 | -2.16 | active |
| PLOD3 | -1.97 | active |
| PLOD3 | -1.98 | active |
| LYPLA2 | -1.11 | inactive |
| LYPLA2 | -0.63 | inactive |
| LYPLA2 | -0.58 | inactive |
| LYPLA2 | -0.28 | inactive |
| BIRC3 | -0.17 | inactive |
| BIRC3 | 1.47 | inactive |
| BIRC3 | 1.15 | inactive |
| BIRC3 | 0.08 | inactive |

In a second layout: results already given.
SAG
- TNF reporter robust z-score: -0.68
- call: inactive

CNIH1
- TNF reporter robust z-score: -0.72
- call: inactive

CNIH1
- TNF reporter robust z-score: -0.82
- call: inactive

CNIH1
- TNF reporter robust z-score: -0.3
- call: inactive

CNIH1
- TNF reporter robust z-score: -0.43
- call: inactive

PLOD3
- TNF reporter robust z-score: -1.91
- call: active

PLOD3
- TNF reporter robust z-score: -2.16
- call: active

PLOD3
- TNF reporter robust z-score: -1.97
- call: active

PLOD3
- TNF reporter robust z-score: -1.98
- call: active

LYPLA2
- TNF reporter robust z-score: -1.11
- call: inactive

LYPLA2
- TNF reporter robust z-score: -0.63
- call: inactive

LYPLA2
- TNF reporter robust z-score: -0.58
- call: inactive

LYPLA2
- TNF reporter robust z-score: -0.28
- call: inactive

BIRC3
- TNF reporter robust z-score: -0.17
- call: inactive

BIRC3
- TNF reporter robust z-score: 1.47
- call: inactive

BIRC3
- TNF reporter robust z-score: 1.15
- call: inactive

BIRC3
- TNF reporter robust z-score: 0.08
- call: inactive

More entries follow.
| gene | TNF reporter robust z-score | call |
| --- | --- | --- |
| PPBP | 0.31 | inactive |
| PPBP | 0.48 | inactive |
| PPBP | 0.86 | inactive |
| CCDC93 | -1.83 | active |
| CCDC93 | -1.44 | inactive |
| CCDC93 | -1.39 | inactive |
| CCDC93 | -0.99 | inactive |
| CLEC14A | -0.02 | inactive |
| CLEC14A | 0.84 | inactive |
| CLEC14A | -0.12 | inactive |
| CLEC14A | 0.7 | inactive |
| STK32C | 0.47 | inactive |
| STK32C | 2.08 | inactive |
| STK32C | 1.58 | inactive |
| STK32C | 1.57 | inactive |
| COL9A2 | 1.05 | inactive |
| COL9A2 | 2.1 | inactive |
| COL9A2 | 2.27 | inactive |
| COL9A2 | 1.84 | inactive |
| LCNL1 | – | inactive |
| LCNL1 | -0.88 | inactive |
| LCNL1 | -1.09 | inactive |
| LCNL1 | -0.72 | inactive |
| HUWE1 | -0.31 | inactive |
| HUWE1 | -0.72 | inactive |
| HUWE1 | 0.12 | inactive |
| HUWE1 | 0.62 | inactive |
| FASTKD3 | 0.14 | inactive |
| FASTKD3 | 0.95 | inactive |
| FASTKD3 | 0.57 | inactive |
| FASTKD3 | -0.81 | inactive |
| TMEM120A | -1.2 | inactive |
| TMEM120A | -0.31 | inactive |
| TMEM120A | -0.84 | inactive |
| TMEM120A | -0.79 | inactive |
| TM4SF1 | 3.76 | active |
| TM4SF1 | 2.89 | active |
| TM4SF1 | 2.92 | active |
| TM4SF1 | 0.08 | inactive |
| DUSP12 | 0.01 | inactive |
| DUSP12 | -1.01 | inactive |
| DUSP12 | -0.76 | inactive |
| DUSP12 | -0.62 | inactive |
| NKIRAS1 | -0.39 | inactive |
| NKIRAS1 | -0.65 | inactive |
| NKIRAS1 | 0.3 | inactive |
| LEF1 | 0.36 | inactive |
| LEF1 | 1.1 | inactive |
| LEF1 | -0.28 | inactive |
| LEF1 | -0.36 | inactive |
| INTU | -0.24 | inactive |
| INTU | 1 | inactive |
| INTU | 0.87 | inactive |
| INTU | 2.9 | active |
| MORN5 | -0.76 | inactive |
| MORN5 | 1.34 | inactive |
| MORN5 | 2.66 | inactive |
| MORN5 | -0.7 | inactive |
